{"source": "PubChem BioAssay AID1224830 | NIAID, 2016", "screen": "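Genes whose knock-down alters the TNF-alpha reporter response to LPS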 (primary screen)", "cells": "human THP-1 monocytic leukaemia cells, TNF dual-luciferase reporter clone, PMA-differentiated to macrophage-like cells", "reagent": "siRNA pool against human genes, 50 nM", "duration": "LPS for 4 h, given about 3 days after siRNA transfection", "conditions": "bacterial LPS (TLR4 ligand), 10 ng/ml", "measured": "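TNF firefly reporter luminescence divided by renilla, normalised to the plate median, then turned into a robust z-score for each replicate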", "direction": "TNF reporter robust z-score: higher = stronger TNF reporter response to LPS", "rule for the call": "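a well is active when its z-score exceeds 2.8 or falls below -1.5; control wells carry no call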", "note": "This is an unselected part of about 18,000 deposited reagents. About 2,900 of all reagents (16%) count as active. 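Calls are made per well; low scores hint the gene aids the LPS response, high scores that it dampens it.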 Repeated entries: four replicate wells of each siRNA pool."}
{"gene": "SEMA6D (semaphorin 6D)", "PubChem SID": "SID315459632", "TNF reporter robust z-score": 0.86, "Call": "inactive"}
{"gene": "SEMA6D (semaphorin 6D)", "PubChem SID": "SID315459632", "TNF reporter robust z-score": 0.38, "Call": "inactive"}
{"gene": "SEMA6D (semaphorin 6D)", "PubChem SID": "SID315459632", "TNF reporter robust z-score": -0.79, "Call": "inactive"}
{"gene": "SEMA6D (semaphorin 6D)", "PubChem SID": "SID315459632", "TNF reporter robust z-score": 1.49, "Call": "inactive"}
{"gene": "VIL1 (villin 1)", "PubChem SID": "SID315452115", "TNF reporter robust z-score": 1.62, "Call": "inactive"}
{"gene": "VIL1 (villin 1)", "PubChem SID": "SID315452115", "TNF reporter robust z-score": 0.37, "Call": "inactive"}
{"gene": "VIL1 (villin 1)", "PubChem SID": "SID315452115", "TNF reporter robust z-score": 1.47, "Call": "inactive"}
{"gene": "VIL1 (villin 1)", "PubChem SID": "SID315452115", "TNF reporter robust z-score": 1.35, "Call": "inactive"}
{"gene": "LRRC34 (leucine rich repeat containing 34)", "PubChem SID": "SID315462508", "TNF reporter robust z-score": -0.1, "Call": "inactive"}
{"gene": "LRRC34 (leucine rich repeat containing 34)", "PubChem SID": "SID315462508", "TNF reporter robust z-score": 0.47, "Call": "inactive"}
{"gene": "LRRC34 (leucine rich repeat containing 34)", "PubChem SID": "SID315462508", "TNF reporter robust z-score": -0.02, "Call": "inactive"}
{"gene": "LRRC34 (leucine rich repeat containing 34)", "PubChem SID": "SID315462508", "TNF reporter robust z-score": 0.27, "Call": "inactive"}
{"gene": "CTSC (cathepsin C)", "PubChem SID": "SID315447888", "TNF reporter robust z-score": -0.71, "Call": "inactive"}
{"gene": "CTSC (cathepsin C)", "PubChem SID": "SID315447888", "TNF reporter robust z-score": 0.18, "Call": "inactive"}
{"gene": "CTSC (cathepsin C)", "PubChem SID": "SID315447888", "TNF reporter robust z-score": -0.25, "Call": "inactive"}
{"gene": "CTSC (cathepsin C)", "PubChem SID": "SID315447888", "TNF reporter robust z-score": 1.01, "Call": "inactive"}
{"gene": "COL9A3 (collagen type IX alpha 3 chain)", "PubChem SID": "SID315448027", "TNF reporter robust z-score": -0.34, "Call": "inactive"}
{"gene": "COL9A3 (collagen type IX alpha 3 chain)", "PubChem SID": "SID315448027", "TNF reporter robust z-score": 0.05, "Call": "inactive"}
{"gene": "COL9A3 (collagen type IX alpha 3 chain)", "PubChem SID": "SID315448027", "TNF reporter robust z-score": -1.06, "Call": "inactive"}
{"gene": "COL9A3 (collagen type IX alpha 3 chain)", "PubChem SID": "SID315448027", "TNF reporter robust z-score": 0.03, "Call": "inactive"}

Ordered by “TNF reporter robust z-score” (highest first): some entries from above.
{"gene": "VIL1 (villin 1)", "PubChem SID": "SID315452115", "TNF reporter robust z-score": 1.62, "Call": "inactive"}
{"gene": "SEMA6D (semaphorin 6D)", "PubChem SID": "SID315459632", "TNF reporter robust z-score": 1.49, "Call": "inactive"}
{"gene": "VIL1 (villin 1)", "PubChem SID": "SID315452115", "TNF reporter robust z-score": 1.47, "Call": "inactive"}
{"gene": "VIL1 (villin 1)", "PubChem SID": "SID315452115", "TNF reporter robust z-score": 1.35, "Call": "inactive"}
{"gene": "VIL1 (villin 1)", "PubChem SID": "SID315452115", "TNF reporter robust z-score": 0.37, "Call": "inactive"}

More results follow.
{"gene": "DHRS4L2 (dehydrogenase/reductase 4 like 2)", "PubChem SID": "SID315463936", "TNF reporter robust z-score": -1.19, "Call": "inactive"}
{"gene": "DHRS4L2 (dehydrogenase/reductase 4 like 2)", "PubChem SID": "SID315463936", "TNF reporter robust z-score": 0.24, "Call": "inactive"}
{"gene": "DHRS4L2 (dehydrogenase/reductase 4 like 2)", "PubChem SID": "SID315463936", "TNF reporter robust z-score": -0.81, "Call": "inactive"}
{"gene": "DHRS4L2 (dehydrogenase/reductase 4 like 2)", "PubChem SID": "SID315463936", "TNF reporter robust z-score": -0.29, "Call": "inactive"}
{"gene": "TMEM68 (transmembrane protein 68)", "PubChem SID": "SID315462023", "TNF reporter robust z-score": -1.29, "Call": "inactive"}
{"gene": "TMEM68 (transmembrane protein 68)", "PubChem SID": "SID315462023", "TNF reporter robust z-score": 0.15, "Call": "inactive"}
{"gene": "TMEM68 (transmembrane protein 68)", "PubChem SID": "SID315462023", "TNF reporter robust z-score": -0.93, "Call": "inactive"}
{"gene": "TMEM68 (transmembrane protein 68)", "PubChem SID": "SID315462023", "TNF reporter robust z-score": 0.55, "Call": "inactive"}
{"gene": "PARP2 (poly(ADP-ribose) polymerase 2)", "PubChem SID": "SID315453766", "TNF reporter robust z-score": 1.37, "Call": "inactive"}
{"gene": "PARP2 (poly(ADP-ribose) polymerase 2)", "PubChem SID": "SID315453766", "TNF reporter robust z-score": 2.08, "Call": "inactive"}
{"gene": "PARP2 (poly(ADP-ribose) polymerase 2)", "PubChem SID": "SID315453766", "TNF reporter robust z-score": 1.41, "Call": "inactive"}
{"gene": "PARP2 (poly(ADP-ribose) polymerase 2)", "PubChem SID": "SID315453766", "TNF reporter robust z-score": 1.28, "Call": "inactive"}
{"gene": "ALDH8A1 (aldehyde dehydrogenase 8 family member A1)", "PubChem SID": "SID315458939", "TNF reporter robust z-score": 2.27, "Call": "inactive"}
{"gene": "ALDH8A1 (aldehyde dehydrogenase 8 family member A1)", "PubChem SID": "SID315458939", "TNF reporter robust z-score": 2.09, "Call": "inactive"}
{"gene": "ALDH8A1 (aldehyde dehydrogenase 8 family member A1)", "PubChem SID": "SID315458939", "TNF reporter robust z-score": 1.86, "Call": "inactive"}
{"gene": "ALDH8A1 (aldehyde dehydrogenase 8 family member A1)", "PubChem SID": "SID315458939", "TNF reporter robust z-score": 2.42, "Call": "inactive"}
{"gene": "SLC22A6", "PubChem SID": "SID315453223", "TNF reporter robust z-score": -0.24, "Call": "inactive"}
{"gene": "SLC22A6", "PubChem SID": "SID315453223", "TNF reporter robust z-score": 0.2, "Call": "inactive"}
{"gene": "SLC22A6", "PubChem SID": "SID315453223", "TNF reporter robust z-score": 0.16, "Call": "inactive"}
{"gene": "SLC22A6", "PubChem SID": "SID315453223", "TNF reporter robust z-score": 1.05, "Call": "inactive"}
{"gene": "ADM2 (adrenomedullin 2)", "PubChem SID": "SID315459566", "TNF reporter robust z-score": 1.19, "Call": "inactive"}
{"gene": "ADM2 (adrenomedullin 2)", "PubChem SID": "SID315459566", "TNF reporter robust z-score": -0.32, "Call": "inactive"}
{"gene": "ADM2 (adrenomedullin 2)", "PubChem SID": "SID315459566", "TNF reporter robust z-score": 0.31, "Call": "inactive"}
{"gene": "ADM2 (adrenomedullin 2)", "PubChem SID": "SID315459566", "TNF reporter robust z-score": 0.92, "Call": "inactive"}
{"gene": "KIFC1 (kinesin family member C1)", "PubChem SID": "SID315449671", "TNF reporter robust z-score": 0.71, "Call": "inactive"}
{"gene": "KIFC1 (kinesin family member C1)", "PubChem SID": "SID315449671", "TNF reporter robust z-score": 1.36, "Call": "inactive"}
{"gene": "KIFC1 (kinesin family member C1)", "PubChem SID": "SID315449671", "TNF reporter robust z-score": -0.66, "Call": "inactive"}
{"gene": "KIFC1 (kinesin family member C1)", "PubChem SID": "SID315449671", "TNF reporter robust z-score": -0.4, "Call": "inactive"}
